Results are given in words; binding and its absence hold for the method and conditions named. Binding seen in cells or lysates may run through a third protein. Tags and fused reporters may be left off the sequences shown.

The chains behind the UniProt entries cited, without tags or fusion partners. Residues count along the entry.
UniProt Q15118, residues 29-436: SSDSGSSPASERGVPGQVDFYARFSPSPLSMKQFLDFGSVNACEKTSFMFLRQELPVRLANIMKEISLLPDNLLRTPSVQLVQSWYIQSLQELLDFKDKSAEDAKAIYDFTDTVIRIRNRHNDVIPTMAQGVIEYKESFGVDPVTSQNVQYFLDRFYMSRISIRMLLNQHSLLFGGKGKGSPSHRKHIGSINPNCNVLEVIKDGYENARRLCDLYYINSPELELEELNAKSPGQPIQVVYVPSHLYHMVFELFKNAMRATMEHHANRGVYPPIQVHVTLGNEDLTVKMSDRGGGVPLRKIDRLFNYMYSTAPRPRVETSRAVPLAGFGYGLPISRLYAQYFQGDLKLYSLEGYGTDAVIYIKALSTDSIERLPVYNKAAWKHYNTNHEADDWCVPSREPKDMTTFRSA

This experiment has as its target T1, STAM-binding protein (STAMBP) (human (endogenous in PANC-1, BxPC-3, SW1990)) (UniProt O95630).
T1 sequence: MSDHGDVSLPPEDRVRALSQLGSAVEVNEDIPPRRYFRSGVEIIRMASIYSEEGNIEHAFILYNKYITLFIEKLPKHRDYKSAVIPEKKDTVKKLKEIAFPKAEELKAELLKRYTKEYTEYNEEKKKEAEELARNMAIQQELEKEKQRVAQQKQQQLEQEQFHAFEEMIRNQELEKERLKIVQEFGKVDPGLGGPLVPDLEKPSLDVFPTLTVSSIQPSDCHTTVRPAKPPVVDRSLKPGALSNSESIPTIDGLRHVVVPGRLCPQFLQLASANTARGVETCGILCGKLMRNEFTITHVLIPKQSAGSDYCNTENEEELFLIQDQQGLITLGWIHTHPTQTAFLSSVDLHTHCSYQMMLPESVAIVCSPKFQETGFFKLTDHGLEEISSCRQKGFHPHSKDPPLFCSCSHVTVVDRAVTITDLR
Kind of experiment: co-IP; endogenous proteins in pancreatic cancer cell lysates; lysates incubated with IgG or the specified primary antibody at 4 °C overnight, protein A/G magnetic beads; immunoprecipitates blotted.

In the case of “PDK1 (from UniProt Q15118 29-436) (enzyme)”, the binding entry is given as “no binding”.
